Reference: patent publication US20150218523A1, “MANUFACTURE OF VASCULAR SMOOTH MUSCLE CELLS AND THE USE” (Agency for Science, Technology and Research, priority 2014, published 2015)

System: NCSMCs derived from hESC (H9)
Conditions: NCSMCs at 1% oxygen, drug 48 hr (atorvastatin 0.5 μM), then labeled Aβ40 (2 mg/ml) for 1 hr; p=0.0492

## CC(C)c1c(C(=O)Nc2ccccc2)c(-c2ccccc2)c(-c2ccc(F)cc2)n1CC[C@@H](O)C[C@@H](O)CC(=O)O [atorvastatin]
  Aβ40 uptake over the vehicle controls (cell-associated Aβ, mean fluorescence brightness normalized to no-uptake control): significantly increased
